Primary screen of a compound library

Amino acid sequences for entries named in this document (tags omitted).
UniProt E9BF75, entry or part of it: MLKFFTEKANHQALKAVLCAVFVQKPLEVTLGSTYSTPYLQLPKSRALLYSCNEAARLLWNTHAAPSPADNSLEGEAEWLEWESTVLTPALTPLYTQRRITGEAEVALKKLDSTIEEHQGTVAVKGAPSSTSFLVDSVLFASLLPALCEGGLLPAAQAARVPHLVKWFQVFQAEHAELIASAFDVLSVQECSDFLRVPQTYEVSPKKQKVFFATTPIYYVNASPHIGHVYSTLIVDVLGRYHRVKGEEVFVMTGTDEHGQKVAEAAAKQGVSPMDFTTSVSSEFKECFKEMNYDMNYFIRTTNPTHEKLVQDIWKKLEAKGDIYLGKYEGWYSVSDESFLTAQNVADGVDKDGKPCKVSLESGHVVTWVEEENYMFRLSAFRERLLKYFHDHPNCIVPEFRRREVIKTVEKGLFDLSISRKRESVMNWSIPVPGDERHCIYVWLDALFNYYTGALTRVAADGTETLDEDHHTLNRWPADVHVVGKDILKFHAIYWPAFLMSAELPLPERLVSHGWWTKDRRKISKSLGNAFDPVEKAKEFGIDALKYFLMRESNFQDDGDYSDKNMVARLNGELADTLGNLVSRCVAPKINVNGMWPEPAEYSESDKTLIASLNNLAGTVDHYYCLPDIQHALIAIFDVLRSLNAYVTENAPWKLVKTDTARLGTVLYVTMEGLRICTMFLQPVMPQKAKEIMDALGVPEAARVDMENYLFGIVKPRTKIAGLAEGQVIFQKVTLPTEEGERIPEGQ

From ChEMBL document CHEMBL3988442, “University of Dundee, Small-Polar-MMV Screening Library” (2021).

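Methionyl-tRNA synthetase (putative), Leishmania donovani (UniProt E9BF75). Primary screen of methionyl-tRNA synthetase; the read-out is not stated. The test concentration is not given. Values are per cent inhibition. Of about 68,000 compounds tested this way, about 24 (0.035%) reached 50% or more in at least one test.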

Results are percentages, as filed.
The record does not define 0% and 100%; most values in the screen are far below 50% and negative numbers occur (in some assays of this library far below -100).
This is an unselected part of the compounds tested.

O=C(COc1cccc(Br)c1)N1CCN(c2nccs2)CC1 gave 5.854%. With CC1(C)CN(C(=O)Nc2cc(C(F)(F)F)c[nH]c2=O)CCO1 the screen gave 23.21%. With Cc1nccn1-c1ccc(CNS(=O)(=O)N2CCCC(C)C2)cn1 (centres undefined) the screen gave 23.13%. Result for O=C(c1cc[nH]n1)N(Cc1ccccc1)CC1CCC1 was 11.11%.

COCc1csc(NC(=O)NCc2ccccn2)n1 gave 6.596%. For CC1CCN(C(=O)[C@H]2C[C@@H]3CCN(CC4CCOCC4)C[C@H]3O2)CC1 the result was 10.28%. Result for Cc1noc(C(C)C)c1C(=O)NCCCN1CCNCC1 was 22.73%. With CN1CCN(C(=O)COCc2nc(-c3ccncc3)no2)CC1 the screen gave 2.233%.

For CSc1ccc(NCC(=O)Nc2c(C)nn(C)c2C)cc1F the result was 14.43%. For Cc1nnc2n1CCN(C(=O)CN(C)Cc1ccccc1)C2 the result was 8.659%. O=C(CC1CCc2ccccc21)NC1(C(=O)O)CCOCC1 (centres undefined) read 10.45%. O=C(CCC(=O)Nc1nnc(C2CCCCC2)s1)NCC1CCCO1 (centres undefined) read 7.365%.

Cc1cc(N)nc(SC2CCN(c3ccccc3F)C2=O)n1 (centres undefined) gave 5.263%. Cc1nc(C)c(S(=O)(=O)NC(=O)c2cccs2)s1 read 11.71%. Cn1c(CN2CCOC(CNc3cccnn3)C2)nnc1C1CC1 (centres undefined) gave 11.36%. CC(C)Cn1cnc2ccc(NC(=O)CCCn3cccn3)cc2c1=O read 1.355%.

Result for CNc1ncccc1CN1CCN(C)CC(C(N)=O)C1 (centres undefined) was 0.9524%. CNC(=O)Cc1ccccc1NC(=O)NCc1ccc(SC)cc1 read 8.362%. Result for CC(NC(=O)Nc1ccc(-n2cncn2)cc1)C(=O)NC(C)(C)C (centres undefined) was 15.57%. O=C(NCCO)C1(Cc2ccccc2-c2cccnc2)CCOCC1 read -12.26%.

Result for COc1cnc(C2(O)CCN(C(=O)c3scnc3C)CC2)c(OC)n1 was -0.7059%. Result for CN(C)CC1(O)CCCN(c2noc(-c3ccccc3)n2)CC1 (centres undefined) was 3.97%. Result for Cc1nc(S(=O)(=O)NCCC(=O)NCc2ccc(C#N)cc2)cn1C was 6.983%. Cc1cnn(CCNCc2c(C)nn(-c3ccccc3)c2C)c1 gave 121.1%.

O=C(c1ccno1)N1CCN2C(=O)N(Cc3ccc(F)cc3)C[C@H]2C1 gave 5.495%. CC(=O)N1Cc2nccn2CC(CNC(=O)c2cccnc2)C1 (centres undefined) read 9.42%. C[C@@H]1CN(Cc2cc(C3CCCCC3)no2)CC[C@@]1(O)C1CC1 read -0.3484%. With CCc1noc(C)c1C(=O)N1CCCC1c1c(C)nn(C)c1C (centres undefined) the screen gave 14.93%.

With O=C(Nc1ccc(F)c(Cl)c1)N1CCCN([C@H]2COC[C@@H]2O)CC1 the screen gave 18.51%. For Cc1cc(S(=O)(=O)N2CCCc3cc(F)c(F)cc32)sc1C(=O)O the result was -13.26%. Cc1[nH]nc(CCC(=O)N2CCc3ncnc(NCCO)c3CC2)c1C gave 14.86%. CC(C(=O)N1CCC(c2[nH]ncc2-c2ccccc2)CC1)n1cncn1 (centres undefined) read 17.14%.

For c1ccc(-c2nc3c(c(NCCCn4cncn4)n2)CCNCC3)nc1 the result was 15.66%.

Repeated from the top, 2 entries:

- O=C(COc1cccc(Br)c1)N1CCN(c2nccs2)CC1 | 5.854%
- CC1(C)CN(C(=O)Nc2cc(C(F)(F)F)c[nH]c2=O)CCO1 | 23.21%